According to PMC9675789:
These are yes or no findings as the source states them, for the method shown. Binding seen in cells or lysates may run through a third protein. Some binding calls cover weakened binding; strength is not graded here.

Sequences of proteins named here, by UniProt entry; tags and fusion partners are left off. Residues count along the entry.
UniProt P54762, residues 18-984: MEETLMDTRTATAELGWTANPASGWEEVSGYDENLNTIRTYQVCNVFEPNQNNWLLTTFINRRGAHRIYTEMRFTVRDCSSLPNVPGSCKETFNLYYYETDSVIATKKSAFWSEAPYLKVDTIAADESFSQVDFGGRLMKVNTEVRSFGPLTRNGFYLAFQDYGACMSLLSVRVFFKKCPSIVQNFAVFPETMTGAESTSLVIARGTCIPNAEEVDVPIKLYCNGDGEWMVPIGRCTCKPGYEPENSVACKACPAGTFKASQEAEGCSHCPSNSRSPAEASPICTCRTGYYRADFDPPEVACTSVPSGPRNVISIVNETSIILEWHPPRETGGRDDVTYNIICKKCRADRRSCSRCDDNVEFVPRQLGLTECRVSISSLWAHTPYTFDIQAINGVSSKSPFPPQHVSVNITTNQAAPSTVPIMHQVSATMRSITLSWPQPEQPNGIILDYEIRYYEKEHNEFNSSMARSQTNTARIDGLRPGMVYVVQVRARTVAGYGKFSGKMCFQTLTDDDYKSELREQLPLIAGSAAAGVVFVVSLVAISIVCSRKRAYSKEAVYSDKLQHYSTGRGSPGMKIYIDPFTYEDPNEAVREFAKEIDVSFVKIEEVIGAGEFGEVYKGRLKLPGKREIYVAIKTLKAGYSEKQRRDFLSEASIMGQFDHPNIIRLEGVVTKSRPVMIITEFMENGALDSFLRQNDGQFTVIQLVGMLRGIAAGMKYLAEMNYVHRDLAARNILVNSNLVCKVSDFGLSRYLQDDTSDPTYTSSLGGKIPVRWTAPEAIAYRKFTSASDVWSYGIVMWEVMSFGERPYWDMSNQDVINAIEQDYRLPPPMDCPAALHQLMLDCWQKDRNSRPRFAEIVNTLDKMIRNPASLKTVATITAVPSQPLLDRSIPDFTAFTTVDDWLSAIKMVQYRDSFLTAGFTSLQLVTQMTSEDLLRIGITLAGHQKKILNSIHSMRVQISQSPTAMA
UniProt P52799, residues 28-333: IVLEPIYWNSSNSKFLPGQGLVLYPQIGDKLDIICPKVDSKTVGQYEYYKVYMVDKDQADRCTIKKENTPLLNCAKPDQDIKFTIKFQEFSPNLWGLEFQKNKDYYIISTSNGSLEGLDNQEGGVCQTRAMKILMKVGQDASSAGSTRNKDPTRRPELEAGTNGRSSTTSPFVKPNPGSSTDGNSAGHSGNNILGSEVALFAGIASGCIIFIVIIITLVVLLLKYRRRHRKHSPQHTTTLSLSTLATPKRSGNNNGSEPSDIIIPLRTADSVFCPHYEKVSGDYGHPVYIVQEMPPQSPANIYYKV

Biological target: EphB1 wt/EGFP (full-length EphB1 in frame with GFP) (UniProt P54762)
Assay: co-IP; anti-GFP antibody and agarose beads on lysate of A549 cells transfected with EphB1 wt/EGFP or EphB1 mutants/EGFP; IP buffer 20 mM Tris pH 7.5, 150 mM NaCl, 1% Nonidet P-40, 0.1% sodium deoxycholate; 4 °C overnight; western blot for EfnB2, p38 and p-p38; GFP null vector as negative control

“EfnB2 (EphrinB2) (from UniProt P52799 28-333) (ligand)” was tested, and the binding was “binds”.
